{"source": "paper PMC5771398", "about": "“Structural basis for assembly of the CBF3 kinetochore complex” (The EMBO Journal, 2017)", "system": "Cep3 (wild type, core complex) + Ctf13 + Skp1 (wild type)", "assay": "EMSA", "settings": "EMSA: complex (final buffer 10 mM HEPES, 300 mM NaCl, 1 mM DTT) mixed with DNA, 200 units lambda phosphatase and 1 mM MnCl2, 30 C 30 min, 0.8% agarose gel in TBE, recombinant protein", "note": "The exact form of at least one protein or probe is not confirmed. Negatives hold for the conditions tested. At least one verdict was read from the data and is not stated in words by the source."}
{"sequence": "AAATATTAGTGTATTTGATTTCCGAAAGTTAAA (double strand) [33 bp wild-type CEN3, FAM-labelled]", "values": [{"measurement": "binding result", "setting": "0.7 uM complex, 0.1 uM labelled DNA", "result": "binds"}]}
{"sequence": "TATTAGTGTATTTGATTTCCGAAAGTTAAAAAAGAAATAGTAAGAAATATATATTT (double strand) [56 bp WT CEN3]", "values": [{"measurement": "binding result", "setting": "no lambda phosphatase (phosphorylated Skp1)", "result": "no binding"}]}
